# According to the supplement of paper PMC8256030:
# Values joined by “and” are separate entries in the source; they are usually repeats but may differ in a detail not shown here. Equal values may be shown once. The list shows a part of the results. Single values are uncertain here, since repeats match poorly.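 HEK293T cells were given each compound shortly before transfection with a reporter in which red mCherry is followed by the SARS-CoV-2 frameshift element and then GFP in the −1 frame, so GFP appears only after frameshifting.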
# Key:
# [1] = test system: SARS-CoV-2 -1 PRF reporter mCherry-FSE-GFP(-1); test: mCherry (red) intensity as percent of control; higher = higher upstream reporter expression; conditions: 10 µM; 24 h; HEK293T
# [2] = test system: SARS-CoV-2 -1 PRF reporter mCherry-FSE-GFP(-1); test: percent effect, decrease of GFP/mCherry ratio (-1 PRF reporter) relative to controls; higher = stronger frameshift inhibition; conditions: 10 µM; 24 h; HEK293T
SMILES,mCherry [1],percent effect [2]
CC(C)[N+]1(C)[C@@H]2CC[C@H]1CC(OC(=O)C(CO)c1ccccc1)C2 (stereo not given in full),72.8%,-3.1%
O=C(Nc1cccc(C(F)(F)F)c1)c1cc(Br)cc(Br)c1O [flusalan],189%,-10.6%
NS(=O)(=O)c1cc2c(cc1C(F)(F)F)NC(Cc1ccccc1)NS2(=O)=O (stereo not given) [bendroflumethiazide],110%,0.319%
O=C(N/N=C/c1ccc([N+](=O)[O-])o1)c1ccc(O)cc1,99.4%,-2.2%
Cc1ccc2c(Br)cc(Br)c(O)c2n1 [broquinaldol],76.1%,10.5%
CCC(=O)NS(=O)(=O)c1ccc(-c2c(-c3ccccc3)noc2C)cc1 [parecoxib],79.6%,-15.2%
C#CCN(C)CCCOc1ccc(Cl)cc1Cl,88.8%,0.703%
Cn1cc(C(=O)[C@@H]2CCc3[nH]cnc3C2)c2ccccc21 [ramosetron],103%,-2.66%
CN(CC(=O)O)C(=N)N [Creatine],109%,0.458%
Cc1cccc(C)c1NC(=O)CC12CCCN1CCC2 [pilsicainide],104%,-2.23%
CC(=O)OCC(=O)[C@@]1(O)CC[C@H]2[C@@H]3CCC4=CC(=O)C=C[C@]4(C)[C@H]3[C@@H](O)C[C@@]21C,123%,-7.4%
CC(=O)O[C@H](CC(=O)[O-])C[N+](C)(C)C [Acetylcarnitine],88.7%,-0.718%
OC[C@H]1O[C@@H](n2cnc3c2N=CNC[C@H]3O)C[C@@H]1O [Pentostatin],91.1%,-5.12%
O=C1CN(/N=C/c2ncc(-c3ccc(Br)cc3)o2)C(=O)N1 [azumolene],53.2%,-2.16%
CNC(=C[N+](=O)[O-])NCCSCc1ccc(CN(C)C)o1,95.2%,-6.81%
COC(=O)N[C@H](C(=O)N[C@@H](Cc1ccccc1)[C@@H](O)CN(Cc1ccc(-c2ccccn2)cc1)NC(=O)[C@@H](NC(=O)OC)C(C)(C)C)C(C)(C)C [atazanavir],85.2%,-0.889%
CC(=O)[C@H]1CC[C@H]2[C@@H]3CC=C4C[C@@H](O)CC[C@]4(C)[C@H]3CC[C@]12C [pregnenolone],101% and 84.4%,0.0203% and -3.47%
Cc1c(C(N)=O)cc([N+](=O)[O-])cc1[N+](=O)[O-] [dinitolmide],90%,0.749%
NC(=O)COC(=O)c1ccccc1Nc1cccc(C(F)(F)F)c1 [colfenamate],136%,11%
Nc1ccc(S(=O)(=O)Nc2ccnn2-c2ccccc2)cc1 [sulfaphenazole],111%,2.48%

# Fetched by structure from the list above, 2 records:
SMILES,mCherry [1],percent effect [2]
OC[C@H]1O[C@@H](n2cnc3c2N=CNC[C@H]3O)C[C@@H]1O [Pentostatin],91.1%,-5.12%
COC(=O)N[C@H](C(=O)N[C@@H](Cc1ccccc1)[C@@H](O)CN(Cc1ccc(-c2ccccn2)cc1)NC(=O)[C@@H](NC(=O)OC)C(C)(C)C)C(C)(C)C [atazanavir],85.2%,-0.889%
